Results are given in words; binding and its absence hold for the method and conditions named. Some results given as binding are weak or reduced against the parent protein; the word gives no strength. For some assays here: Sequences can lack the tags named with a protein.
Columns and labels:
[1] = molecular target: T1, rhTLR-2 (recombinant human TLR-2) (human, UniProt O60603 21-588, limits assumed); assay: SPR, Biacore T100
T1 construct: Soluble recombinant protein reconstituted from dry powder, used as SPR analyte; also called glycosylated human receptor analyte

Protein sequences, listed by entry. Tags and fused reporters are not part of them. Lines headed by an entry give the natural chain unless they say otherwise; changes in a name come on top.
UniProt O60603: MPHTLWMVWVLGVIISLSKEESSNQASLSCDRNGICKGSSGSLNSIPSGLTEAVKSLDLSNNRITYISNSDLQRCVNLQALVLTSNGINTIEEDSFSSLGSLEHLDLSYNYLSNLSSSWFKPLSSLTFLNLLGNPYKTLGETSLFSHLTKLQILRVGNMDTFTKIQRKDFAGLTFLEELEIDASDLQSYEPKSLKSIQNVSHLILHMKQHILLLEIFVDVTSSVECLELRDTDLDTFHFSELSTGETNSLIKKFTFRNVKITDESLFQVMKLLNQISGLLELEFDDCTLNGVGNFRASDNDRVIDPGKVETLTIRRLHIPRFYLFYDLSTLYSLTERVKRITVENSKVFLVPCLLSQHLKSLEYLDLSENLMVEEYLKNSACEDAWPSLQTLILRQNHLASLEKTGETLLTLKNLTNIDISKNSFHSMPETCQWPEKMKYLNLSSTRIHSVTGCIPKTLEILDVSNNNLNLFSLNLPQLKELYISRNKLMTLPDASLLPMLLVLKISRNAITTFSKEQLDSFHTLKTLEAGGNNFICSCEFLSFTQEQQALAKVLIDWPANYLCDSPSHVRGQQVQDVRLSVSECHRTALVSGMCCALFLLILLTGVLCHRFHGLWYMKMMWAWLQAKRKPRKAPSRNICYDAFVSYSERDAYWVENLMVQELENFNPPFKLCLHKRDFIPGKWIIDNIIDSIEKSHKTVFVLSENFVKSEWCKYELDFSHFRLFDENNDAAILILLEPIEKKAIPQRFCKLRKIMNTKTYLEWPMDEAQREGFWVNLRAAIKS

[2] = molecular target: T2, rmTLR2/Fc (recombinant murine TLR-2) (Mus musculus, UniProt Q9QUN7 25-587, limits assumed); assay: SPR, Biacore T100
T2 construct: Recombinant Fc fusion used as SPR analyte, MW of 98 kDa printed; also called murine receptor
T2 sequence: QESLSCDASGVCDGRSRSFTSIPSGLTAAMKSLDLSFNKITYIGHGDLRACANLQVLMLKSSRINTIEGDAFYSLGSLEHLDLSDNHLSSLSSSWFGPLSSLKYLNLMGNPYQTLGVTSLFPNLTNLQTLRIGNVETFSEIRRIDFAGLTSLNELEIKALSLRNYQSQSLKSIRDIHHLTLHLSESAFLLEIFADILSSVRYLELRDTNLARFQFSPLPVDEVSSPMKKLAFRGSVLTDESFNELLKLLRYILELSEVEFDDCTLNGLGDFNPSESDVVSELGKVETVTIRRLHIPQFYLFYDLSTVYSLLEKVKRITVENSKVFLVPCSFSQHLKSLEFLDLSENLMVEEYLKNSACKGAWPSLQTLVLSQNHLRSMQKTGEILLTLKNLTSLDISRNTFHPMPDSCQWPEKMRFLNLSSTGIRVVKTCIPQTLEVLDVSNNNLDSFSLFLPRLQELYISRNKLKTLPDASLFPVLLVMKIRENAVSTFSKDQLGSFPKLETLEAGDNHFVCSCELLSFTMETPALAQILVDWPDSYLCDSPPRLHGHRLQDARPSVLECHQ

binding [1]: binds
binding [2]: binds
B1: OPN-305 fully humanised anti-Toll-like Receptor 2 monoclonal antibody (antibody, human IgG4 S228P, kappa, V domains shown)
VH: QVQLVQSGSELKKPGASVKLSCKASGFTFTTYGINWVRQAPGQGLEWIGWIYPRDGSTNFNENFKDRATITVDTSASTAYMELSSLRSEDTAVYFCARLTGGTFLDYWGQGTTVTVSS
VL: DIVLTQSPATLSLSPGERATLSCRASESVEYYGTSLMQWYQQKPGQPPKLLIFGASNVESGVPDRFSGSGSGTDFTLKISRVEAEDVGMYFCQQSRKLPWTFGGGTKVEIKR
notes: made in NS0 cells; also called variant 21

From patent US20120164159A1 (OPSONA THERAPEUTICS, published 2012)
